From the supplement of paper PMC7661543
Differences between knockout arms are mostly noise.

System: HCC-38
Assay: relative cell number vs DMSO control (72 h) (% of DMSO); higher = less growth inhibition (more cells)
Protocol: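 QMAP-Seq: a pool of 5 breast cancer cell lines (ZR-75-1, SKBR3, HCC-38, MDA-MB-231, BT-20), each carrying 12 doxycycline-inducible Cas9 sgRNA perturbations (11 knockouts plus non-targeting sgNT), was treated with compounds for 72 h at four 10-fold doses (10 nM-10 uM or 1 nM-1 uM range). Barcodes were amplified and sequenced, and cell number was interpolated from 293T spike-in standard curves. The result is expressed as % of the median of DMSO wells. Two biological replicates.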

COc1cc2nccc(Oc3ccc(NC(=O)C4(C(=O)Nc5ccc(F)cc5)CC4)cc3)c2cc1OC [Cabozantinib]
Conditions | relative cell number
sgRNA knockout: sgATF3, 10 nM | 90.8
sgRNA knockout: sgATF3, 100 nM | 93
sgRNA knockout: sgATF3, 1000 nM | 91.7
sgRNA knockout: sgATF3, 10000 nM | 64.4
sgRNA knockout: sgATF4, 10 nM | 80.4
sgRNA knockout: sgATF4, 100 nM | 95.8
sgRNA knockout: sgATF4, 1000 nM | 92.8
sgRNA knockout: sgATF4, 10000 nM | 64.2
sgRNA knockout: sgATF6, 10 nM | 105
sgRNA knockout: sgATF6, 100 nM | 110
sgRNA knockout: sgATF6, 1000 nM | 96.1
sgRNA knockout: sgATF6, 10000 nM | 68.8
sgRNA knockout: sgATG7, 10 nM | 77
sgRNA knockout: sgATG7, 100 nM | 93.1
sgRNA knockout: sgATG7, 1000 nM | 97.5
sgRNA knockout: sgATG7, 10000 nM | 60.2
sgRNA knockout: sgERN1, 10 nM | 97.2
sgRNA knockout: sgERN1, 100 nM | 95
sgRNA knockout: sgERN1, 1000 nM | 96.6
sgRNA knockout: sgERN1, 10000 nM | 58.8
sgRNA knockout: sgHSF1, 10 nM | 121
sgRNA knockout: sgHSF1, 100 nM | 98.9
sgRNA knockout: sgHSF1, 1000 nM | 107
sgRNA knockout: sgHSF1, 10000 nM | 71.3
sgRNA knockout: sgHSF2, 10 nM | 99.1
sgRNA knockout: sgHSF2, 100 nM | 99.8
sgRNA knockout: sgHSF2, 1000 nM | 109
sgRNA knockout: sgHSF2, 10000 nM | 61.656
sgRNA knockout: sgKEAP1, 10 nM | 116
sgRNA knockout: sgKEAP1, 100 nM | 92.9
sgRNA knockout: sgKEAP1, 1000 nM | 117
sgRNA knockout: sgKEAP1, 10000 nM | 62.9
sgRNA knockout: sgNFE2L2, 10 nM | 79
sgRNA knockout: sgNFE2L2, 100 nM | 88.9
sgRNA knockout: sgNFE2L2, 1000 nM | 95.2
sgRNA knockout: sgNFE2L2, 10000 nM | 68.3
sgRNA knockout: sgSLC35F2, 10 nM | 84.2
sgRNA knockout: sgSLC35F2, 100 nM | 91
sgRNA knockout: sgSLC35F2, 1000 nM | 102
sgRNA knockout: sgSLC35F2, 10000 nM | 59.8
sgRNA knockout: sgXBP1, 10 nM | 78.6
sgRNA knockout: sgXBP1, 100 nM | 98
sgRNA knockout: sgXBP1, 1000 nM | 95.3
sgRNA knockout: sgXBP1, 10000 nM | 60.6

CC(C)C[C@H](NC(=O)[C@H](CCc1ccccc1)NC(=O)CN1CCOCC1)C(=O)N[C@@H](Cc1ccccc1)C(=O)N[C@@H](CC(C)C)C(=O)[C@@]1(C)CO1 [Carfilzomib]
Conditions | relative cell number
sgRNA knockout: sgATF3, 1 nM | 76.2
sgRNA knockout: sgATF3, 10 nM | 35.4
sgRNA knockout: sgATF3, 100 nM | 8.84
sgRNA knockout: sgATF3, 1000 nM | 4.58
sgRNA knockout: sgATF4, 1 nM | 79.1
sgRNA knockout: sgATF4, 10 nM | 34.7
sgRNA knockout: sgATF4, 100 nM | 6.77
sgRNA knockout: sgATF4, 1000 nM | 4.9
sgRNA knockout: sgATF6, 1 nM | 84
sgRNA knockout: sgATF6, 10 nM | 32.2
sgRNA knockout: sgATF6, 100 nM | 9.49
sgRNA knockout: sgATF6, 1000 nM | 4.46
sgRNA knockout: sgATG7, 1 nM | 82.1
sgRNA knockout: sgATG7, 10 nM | 30.8
sgRNA knockout: sgATG7, 100 nM | 8.79
sgRNA knockout: sgATG7, 1000 nM | 4.62
sgRNA knockout: sgERN1, 1 nM | 85.4
sgRNA knockout: sgERN1, 10 nM | 34
sgRNA knockout: sgERN1, 100 nM | 9.12
sgRNA knockout: sgERN1, 1000 nM | 5.67
sgRNA knockout: sgHSF1, 1 nM | 73.7
sgRNA knockout: sgHSF1, 10 nM | 25.9
sgRNA knockout: sgHSF1, 100 nM | 11.5
sgRNA knockout: sgHSF1, 1000 nM | 4.48
sgRNA knockout: sgHSF2, 1 nM | 73.1
sgRNA knockout: sgHSF2, 10 nM | 33.3
sgRNA knockout: sgHSF2, 100 nM | 9.42
sgRNA knockout: sgHSF2, 1000 nM | 5.11
sgRNA knockout: sgKEAP1, 1 nM | 85.8
sgRNA knockout: sgKEAP1, 10 nM | 37.8
sgRNA knockout: sgKEAP1, 100 nM | 8.8
sgRNA knockout: sgKEAP1, 1000 nM | 5.5
sgRNA knockout: sgNFE2L2, 1 nM | 79.1
sgRNA knockout: sgNFE2L2, 10 nM | 33.8
sgRNA knockout: sgNFE2L2, 100 nM | 7.23
sgRNA knockout: sgNFE2L2, 1000 nM | 5.28
sgRNA knockout: sgSLC35F2, 1 nM | 73
sgRNA knockout: sgSLC35F2, 10 nM | 33.3
sgRNA knockout: sgSLC35F2, 100 nM | 8.63
sgRNA knockout: sgSLC35F2, 1000 nM | 5.5
sgRNA knockout: sgXBP1, 1 nM | 80.7
sgRNA knockout: sgXBP1, 10 nM | 31.8
sgRNA knockout: sgXBP1, 100 nM | 8.43
sgRNA knockout: sgXBP1, 1000 nM | 5.66
